Results deposited as PubChem BioAssay AID1671195 (Yale University, 2021)
Here is an unselected part of about 22,000 deposited reagents. About 1,510 of them (6.9%) were called active. 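Active includes knockdowns raising or lowering LDL uptake; positive z-scores mean more uptake, negative mean less.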 Unmarked entries are inactive.

Purpose: 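Regulators of LDL receptor activity judged by labelled LDL uptake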 (primary screen)
Cells: human Huh7 hepatoma cells
Knock-down reagent: siRNA pool against human genes, 18 nM
Duration: about 2 to 2.5 days of knockdown, then 8 h LDL uptake
Conditions: DiI-labelled LDL at 30 µg/ml for 8 h, in lipoprotein-deficient serum medium
Measurement: 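Fluorescent LDL signal imaged in cells, scaled to the plate median, robust z-score for each replicate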
Direction: robust z-score: higher = more LDL uptake after knockdown
Rule for the call: 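a gene counts as active if at least two replicate z-scores exceed ±2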

| gene symbol | robust z-score, replicate 1 | robust z-score, replicate 2 | robust z-score, replicate 3 |
| --- | --- | --- | --- |
| OR5M10 (GeneID 390167) | 0.312 | 0.672 | 0.8 |
| EVI5L (GeneID 115704) | 0.736 | 0.325 | 0.691 |
| MIR3667HG (GeneID 348645) | -0.0575 | -0.932 | -0.258 |
| SLC37A3 (GeneID 84255) | 0.32 | 0.906 | 0.528 |
| LINC01913 (GeneID 388942) | 0.425 | 0.541 | 0.399 |
| CLEC7A (GeneID 64581) | -0.903 | -0.981 | -0.89 |
| ZNF155 (GeneID 7711) | 2.29 (active) | 2.57 | 1.83 |
| CYTOR (GeneID 112597) | -1.57 | -1.41 | -1.59 |
| LRRC31 (GeneID 79782) | -1.51 | -1.37 | -1.47 |
| THBS1 (GeneID 7057) | -0.275 | -0.106 | 0.597 |
| GOLGA6B (GeneID 55889) | -1.27 | 0.00796 | -1.45 |
| DQX1 (GeneID 165545) | 0.993 | 1.2 | 1 |
| VPS25P1 (GeneID 441899) | 0.0846 | 0.235 | -0.0995 |
| LOC388461 (retired record) (GeneID 388461) | -0.382 | -0.446 | -0.389 |
| BATF2 (GeneID 116071) | -1.3 | -0.542 | -1.26 |
| EPM2AIP1 (GeneID 9852) | 0.138 | -0.759 | -0.993 |
| NDUFB7 (GeneID 4713) | 1.28 | 0.134 | 0.829 |
| ZNF470 (GeneID 388566) | 0.0673 | 0.307 | 0.0658 |

Reformatted: 2 of the entries above.
BATF2 (GeneID 116071) — robust z-score, replicate 1 = -1.3; robust z-score, replicate 2 = -0.542; robust z-score, replicate 3 = -1.26
EPM2AIP1 (GeneID 9852) — robust z-score, replicate 1 = 0.138; robust z-score, replicate 2 = -0.759; robust z-score, replicate 3 = -0.993

More records follow.
| gene symbol | robust z-score, replicate 1 | robust z-score, replicate 2 | robust z-score, replicate 3 |
| --- | --- | --- | --- |
| OFD1 (GeneID 8481) | -0.266 | 0.314 | 0.207 |
| NCR1 (GeneID 9437) | -0.283 | -0.276 | -0.506 |
| PDAP1 (GeneID 11333) | 0.169 | -1.26 | 0.618 |
| TIGD4 (GeneID 201798) | -2.15 | 0.606 | 0.26 |
| CCN1 (GeneID 3491) | 0.00657 | 0.552 | 1.38 |
| HLA-DMA (GeneID 3108) | 3.79 (active) | 3.5 | 3.75 |
| ZNF419 (GeneID 79744) | -0.0852 | -0.414 | 0.0637 |
| ITGA1 (GeneID 3672) | -0.321 | -0.453 | -0.738 |
| CYB5B (GeneID 80777) | -0.509 | -0.284 | -0.578 |
| UBE2J2 (GeneID 118424) | 0.469 | -0.345 | -0.991 |
